Assay results as given in the supplement of paper PMC10849652.
This is one part of the list.

Sequences of proteins named here, by UniProt entry; tags and fusion partners are left off. A change or cut given only in a name is not applied to a line headed by its entry.
UniProt P07225: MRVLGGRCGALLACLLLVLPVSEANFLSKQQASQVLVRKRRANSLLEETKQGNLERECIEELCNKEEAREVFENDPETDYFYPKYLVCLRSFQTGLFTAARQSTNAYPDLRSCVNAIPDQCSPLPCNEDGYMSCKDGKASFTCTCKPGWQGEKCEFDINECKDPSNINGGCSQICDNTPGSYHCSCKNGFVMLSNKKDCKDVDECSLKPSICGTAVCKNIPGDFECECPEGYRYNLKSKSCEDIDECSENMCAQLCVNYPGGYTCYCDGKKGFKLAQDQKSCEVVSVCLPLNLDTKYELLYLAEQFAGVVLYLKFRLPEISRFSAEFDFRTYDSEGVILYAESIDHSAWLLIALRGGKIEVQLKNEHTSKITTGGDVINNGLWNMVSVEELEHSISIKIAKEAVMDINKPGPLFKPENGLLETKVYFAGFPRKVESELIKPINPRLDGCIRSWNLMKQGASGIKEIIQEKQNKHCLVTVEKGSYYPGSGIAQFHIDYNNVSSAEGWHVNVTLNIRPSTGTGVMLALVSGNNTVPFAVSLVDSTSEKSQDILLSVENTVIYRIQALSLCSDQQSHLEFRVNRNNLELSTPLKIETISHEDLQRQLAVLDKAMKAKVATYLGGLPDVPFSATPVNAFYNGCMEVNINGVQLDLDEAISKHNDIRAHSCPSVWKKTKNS
UniProt Q9H875: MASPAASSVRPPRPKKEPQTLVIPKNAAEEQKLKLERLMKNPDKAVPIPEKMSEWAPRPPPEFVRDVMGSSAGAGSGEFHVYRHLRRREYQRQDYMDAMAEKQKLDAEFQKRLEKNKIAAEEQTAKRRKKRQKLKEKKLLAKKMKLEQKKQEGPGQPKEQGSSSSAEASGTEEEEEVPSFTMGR
UniProt P62140, whole entry, looked up: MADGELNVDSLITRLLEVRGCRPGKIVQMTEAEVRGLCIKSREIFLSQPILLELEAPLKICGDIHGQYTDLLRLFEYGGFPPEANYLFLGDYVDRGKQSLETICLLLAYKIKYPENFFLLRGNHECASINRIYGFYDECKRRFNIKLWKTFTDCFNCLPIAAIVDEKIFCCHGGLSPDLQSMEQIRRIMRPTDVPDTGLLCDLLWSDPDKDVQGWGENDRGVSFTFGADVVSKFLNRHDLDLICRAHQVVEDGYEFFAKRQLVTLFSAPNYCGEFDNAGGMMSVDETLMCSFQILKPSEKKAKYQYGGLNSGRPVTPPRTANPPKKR
UniProt Q5H9R7: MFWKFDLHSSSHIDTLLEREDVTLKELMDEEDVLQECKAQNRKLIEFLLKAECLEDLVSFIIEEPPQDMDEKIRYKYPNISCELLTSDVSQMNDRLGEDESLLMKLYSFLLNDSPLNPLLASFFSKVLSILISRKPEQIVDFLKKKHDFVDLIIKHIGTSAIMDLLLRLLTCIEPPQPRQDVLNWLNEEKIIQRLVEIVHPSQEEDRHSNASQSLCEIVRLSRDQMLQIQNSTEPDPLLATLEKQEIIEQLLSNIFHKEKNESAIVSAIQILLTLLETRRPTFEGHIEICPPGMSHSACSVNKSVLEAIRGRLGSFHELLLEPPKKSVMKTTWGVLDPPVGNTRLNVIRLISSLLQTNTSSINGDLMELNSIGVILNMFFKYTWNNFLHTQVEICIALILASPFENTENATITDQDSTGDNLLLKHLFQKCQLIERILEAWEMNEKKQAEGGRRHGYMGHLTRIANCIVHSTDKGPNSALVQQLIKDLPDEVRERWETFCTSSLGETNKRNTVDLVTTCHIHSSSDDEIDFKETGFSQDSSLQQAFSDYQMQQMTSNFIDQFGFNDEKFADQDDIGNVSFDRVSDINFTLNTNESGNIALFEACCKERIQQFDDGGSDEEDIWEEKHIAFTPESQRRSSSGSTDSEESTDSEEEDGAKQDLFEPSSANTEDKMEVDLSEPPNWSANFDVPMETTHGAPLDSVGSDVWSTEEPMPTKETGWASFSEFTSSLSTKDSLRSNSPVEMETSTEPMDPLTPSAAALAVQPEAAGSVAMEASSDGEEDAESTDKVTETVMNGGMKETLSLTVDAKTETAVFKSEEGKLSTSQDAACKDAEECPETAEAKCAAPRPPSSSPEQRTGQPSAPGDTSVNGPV
UniProt Q86WR7: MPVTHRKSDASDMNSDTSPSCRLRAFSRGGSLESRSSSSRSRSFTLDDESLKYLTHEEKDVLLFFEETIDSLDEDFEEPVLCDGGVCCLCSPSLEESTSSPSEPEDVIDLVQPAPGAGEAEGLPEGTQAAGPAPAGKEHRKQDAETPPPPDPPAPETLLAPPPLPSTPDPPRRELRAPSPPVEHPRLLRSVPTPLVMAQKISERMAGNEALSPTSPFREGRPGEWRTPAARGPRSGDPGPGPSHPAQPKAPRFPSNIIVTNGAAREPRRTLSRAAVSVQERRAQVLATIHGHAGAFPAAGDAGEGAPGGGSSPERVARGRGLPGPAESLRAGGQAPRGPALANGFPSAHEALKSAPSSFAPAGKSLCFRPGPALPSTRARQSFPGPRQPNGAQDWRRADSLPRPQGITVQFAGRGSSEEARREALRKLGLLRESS
UniProt Q96QC0: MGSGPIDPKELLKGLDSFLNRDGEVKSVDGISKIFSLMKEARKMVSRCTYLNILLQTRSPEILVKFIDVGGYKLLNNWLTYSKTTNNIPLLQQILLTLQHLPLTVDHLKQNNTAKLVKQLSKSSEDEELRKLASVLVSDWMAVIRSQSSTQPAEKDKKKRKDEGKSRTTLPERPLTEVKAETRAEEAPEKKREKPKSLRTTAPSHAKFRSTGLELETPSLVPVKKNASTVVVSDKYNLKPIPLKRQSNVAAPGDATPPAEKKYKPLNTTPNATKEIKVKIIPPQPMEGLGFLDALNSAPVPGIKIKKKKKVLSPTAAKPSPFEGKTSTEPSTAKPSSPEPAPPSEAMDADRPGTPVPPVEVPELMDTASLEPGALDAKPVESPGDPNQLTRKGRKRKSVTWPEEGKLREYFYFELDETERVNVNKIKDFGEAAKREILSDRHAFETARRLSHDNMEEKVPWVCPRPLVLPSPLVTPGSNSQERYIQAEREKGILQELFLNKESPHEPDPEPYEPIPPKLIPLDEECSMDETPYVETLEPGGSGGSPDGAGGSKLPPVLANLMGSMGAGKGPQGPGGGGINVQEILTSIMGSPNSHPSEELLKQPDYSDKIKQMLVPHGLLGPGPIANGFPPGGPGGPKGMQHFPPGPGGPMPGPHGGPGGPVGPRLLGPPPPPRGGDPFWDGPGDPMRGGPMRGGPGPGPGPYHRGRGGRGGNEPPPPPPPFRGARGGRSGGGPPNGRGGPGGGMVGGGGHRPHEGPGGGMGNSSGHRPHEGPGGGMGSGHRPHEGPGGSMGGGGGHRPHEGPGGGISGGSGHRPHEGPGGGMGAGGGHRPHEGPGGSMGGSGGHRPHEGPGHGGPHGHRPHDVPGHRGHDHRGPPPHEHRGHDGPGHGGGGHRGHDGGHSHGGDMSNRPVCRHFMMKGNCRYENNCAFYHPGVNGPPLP
UniProt P30048: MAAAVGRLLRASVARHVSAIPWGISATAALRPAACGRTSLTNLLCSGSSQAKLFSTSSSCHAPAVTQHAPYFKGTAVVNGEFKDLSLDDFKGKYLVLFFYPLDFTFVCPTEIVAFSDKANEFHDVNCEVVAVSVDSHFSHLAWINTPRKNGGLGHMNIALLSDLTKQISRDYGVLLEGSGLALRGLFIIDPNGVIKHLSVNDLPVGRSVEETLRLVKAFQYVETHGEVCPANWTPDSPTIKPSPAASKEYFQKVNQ
UniProt Q9ULR3: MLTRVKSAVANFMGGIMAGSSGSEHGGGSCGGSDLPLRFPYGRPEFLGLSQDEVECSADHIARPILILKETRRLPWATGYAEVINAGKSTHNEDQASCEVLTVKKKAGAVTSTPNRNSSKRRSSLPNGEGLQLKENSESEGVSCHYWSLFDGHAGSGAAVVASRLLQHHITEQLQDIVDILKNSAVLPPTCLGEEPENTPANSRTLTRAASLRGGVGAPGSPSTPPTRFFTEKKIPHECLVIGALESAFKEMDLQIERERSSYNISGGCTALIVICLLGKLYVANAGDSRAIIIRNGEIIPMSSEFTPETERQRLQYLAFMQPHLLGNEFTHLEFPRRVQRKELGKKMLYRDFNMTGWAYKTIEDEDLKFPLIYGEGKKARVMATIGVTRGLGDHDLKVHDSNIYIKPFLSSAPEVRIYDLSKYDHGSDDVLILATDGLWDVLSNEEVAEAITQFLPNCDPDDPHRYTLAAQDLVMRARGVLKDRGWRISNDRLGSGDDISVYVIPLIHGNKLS
UniProt P63151: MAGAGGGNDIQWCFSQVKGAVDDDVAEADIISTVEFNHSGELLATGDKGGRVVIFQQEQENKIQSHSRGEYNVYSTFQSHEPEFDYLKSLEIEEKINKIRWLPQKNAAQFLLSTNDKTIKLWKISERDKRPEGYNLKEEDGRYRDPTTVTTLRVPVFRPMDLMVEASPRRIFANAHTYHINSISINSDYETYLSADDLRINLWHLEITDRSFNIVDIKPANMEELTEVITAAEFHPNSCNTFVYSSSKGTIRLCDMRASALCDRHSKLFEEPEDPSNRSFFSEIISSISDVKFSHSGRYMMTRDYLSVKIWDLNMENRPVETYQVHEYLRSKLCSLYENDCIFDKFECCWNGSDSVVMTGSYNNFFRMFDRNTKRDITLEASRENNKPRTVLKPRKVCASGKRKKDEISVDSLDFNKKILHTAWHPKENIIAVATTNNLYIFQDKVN
UniProt P11908: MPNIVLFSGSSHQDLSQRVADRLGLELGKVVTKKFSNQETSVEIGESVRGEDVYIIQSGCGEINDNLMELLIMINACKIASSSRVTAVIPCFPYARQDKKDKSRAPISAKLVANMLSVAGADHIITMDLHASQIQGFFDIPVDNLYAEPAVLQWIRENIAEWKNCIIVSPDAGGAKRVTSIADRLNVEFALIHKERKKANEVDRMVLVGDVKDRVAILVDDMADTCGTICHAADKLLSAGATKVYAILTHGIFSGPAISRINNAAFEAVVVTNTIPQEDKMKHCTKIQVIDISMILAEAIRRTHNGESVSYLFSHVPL
UniProt P30154, whole entry, looked up: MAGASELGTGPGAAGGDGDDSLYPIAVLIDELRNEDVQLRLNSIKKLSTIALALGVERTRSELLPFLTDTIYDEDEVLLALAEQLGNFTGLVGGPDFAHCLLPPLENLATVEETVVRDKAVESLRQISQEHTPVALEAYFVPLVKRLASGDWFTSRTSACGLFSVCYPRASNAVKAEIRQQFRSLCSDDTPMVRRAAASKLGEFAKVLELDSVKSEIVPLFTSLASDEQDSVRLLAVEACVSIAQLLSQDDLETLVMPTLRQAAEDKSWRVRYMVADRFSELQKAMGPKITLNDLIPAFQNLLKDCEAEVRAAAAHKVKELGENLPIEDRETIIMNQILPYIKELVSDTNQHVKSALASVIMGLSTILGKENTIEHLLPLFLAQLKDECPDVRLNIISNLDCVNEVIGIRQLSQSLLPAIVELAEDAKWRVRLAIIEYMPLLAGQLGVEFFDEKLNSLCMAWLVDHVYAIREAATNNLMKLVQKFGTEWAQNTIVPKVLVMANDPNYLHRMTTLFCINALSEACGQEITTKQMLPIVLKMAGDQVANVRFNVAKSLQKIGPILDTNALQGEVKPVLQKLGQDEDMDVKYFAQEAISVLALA
UniProt Q9HCU5: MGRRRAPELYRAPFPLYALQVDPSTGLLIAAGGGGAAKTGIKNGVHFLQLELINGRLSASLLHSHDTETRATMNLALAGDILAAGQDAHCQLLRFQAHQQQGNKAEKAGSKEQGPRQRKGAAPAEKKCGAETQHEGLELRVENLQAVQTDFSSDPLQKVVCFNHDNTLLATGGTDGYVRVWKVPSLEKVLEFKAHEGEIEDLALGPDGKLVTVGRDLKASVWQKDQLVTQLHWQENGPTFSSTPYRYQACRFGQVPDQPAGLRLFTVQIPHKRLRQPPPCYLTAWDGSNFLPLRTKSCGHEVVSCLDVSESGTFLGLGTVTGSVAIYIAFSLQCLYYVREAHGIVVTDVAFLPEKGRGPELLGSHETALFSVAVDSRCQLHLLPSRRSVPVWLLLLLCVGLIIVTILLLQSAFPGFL
UniProt P41743, whole entry, looked up: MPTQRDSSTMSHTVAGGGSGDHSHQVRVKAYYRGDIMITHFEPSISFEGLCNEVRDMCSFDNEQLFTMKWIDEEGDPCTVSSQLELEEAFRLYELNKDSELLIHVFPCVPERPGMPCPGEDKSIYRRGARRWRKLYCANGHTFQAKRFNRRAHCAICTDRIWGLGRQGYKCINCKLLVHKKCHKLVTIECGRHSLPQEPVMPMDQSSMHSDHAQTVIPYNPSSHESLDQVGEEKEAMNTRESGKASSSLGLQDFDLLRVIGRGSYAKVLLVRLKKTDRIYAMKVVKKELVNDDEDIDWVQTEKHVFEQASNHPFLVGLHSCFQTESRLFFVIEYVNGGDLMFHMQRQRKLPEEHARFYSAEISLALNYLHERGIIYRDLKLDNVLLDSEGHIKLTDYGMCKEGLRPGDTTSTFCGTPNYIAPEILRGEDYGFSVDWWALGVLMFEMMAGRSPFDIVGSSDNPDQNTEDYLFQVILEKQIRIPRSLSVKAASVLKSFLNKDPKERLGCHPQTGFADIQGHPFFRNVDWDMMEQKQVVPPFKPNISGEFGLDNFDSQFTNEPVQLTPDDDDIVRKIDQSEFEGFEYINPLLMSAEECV

Columns and labels:
Assay in all cases: log2 fold change, soluble protein after heating vs DMSO (PISA); higher = thermal stabilisation; K562 cells, 10 uM, 30 min; active = over 0.2 and 3.5 SD of the protein, either way, in both replicates (recomputed)
[1] = compound: CC[C@@H]1C(=O)N(C)c2cnc(Nc3ccc(C(=O)NC4CCN(C)CC4)cc3OC)nc2N1C1CCCC1
Summary of the method: (§1)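 Values are thermal stability changes relative to control samples and are taken from duplicates. They are stated as log2 fold changes. Before quantification by TMTpro 16plex LC-MS/MS with equalised channel sums, K562 cells at 2×10^6 cells/mL were treated with 10 μM compound for 30 min, heated in aliquots for 3 min across 48°C-58°C, pooled, extracted in PBS with 0.5% NP-40 at 4°C, and centrifuged at 21,000xg for 90 min to give the soluble supernatant.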

[2] = compound: CC[C@@H]1C(=O)N(C)c2cnc(Nc3ccc(C(=O)N[C@H]4CC[C@H](N5CCN(CC6CC6)CC5)CC4)cc3OC)nc2N1C(C)C [volasertib]
Summary of the method: as §1

[3] = compound: CC[C@H](C)N1C=C(C2=C(C=C(C=C21)C3=CN=C(C=C3)N4CCNCC4)C(=O)NCC5=C(C=C(NC5=O)C)C)C
Summary of the method: as §1

[4] = compound: CC[C@H](C)[C@@H](C(=O)N[C@@H]([C@@H](C)O)C(=O)N[C@@H](CC(C)C)C(=O)[C@]1(CO1)C)NC(=O)[C@H]([C@@H](C)CC)N(C)C(=O)C [epoxomicin]
Summary of the method: as §1

[5] = compound: CCn1c(C(=O)N(C2CC2)C2CC2)cc2c3c(ncn3C)c(Nc3cc(C)n(C)n3)nc21
Summary of the method: as §1

[6] = compound: CCn1cc(-c2ccnc3[nH]c(-c4cccc(CN(C)C)c4)cc23)c(-c2ccc(NC(=O)N(C)C)cc2)n1
Summary of the method: as §1

[7] = compound: CN(C)CC(=O)Nc1ccc2[nH]c(=O)c3ccccc3c2c1
Summary of the method: as §1

[8] = compound: CN(CCOC1=CC=C(C=C1)C[C@H]2C(=O)NC(=O)S2)C3=CC=CC=N3 (racemic) [rosiglitazone]
Summary of the method: as §1

[9] = compound: CN1C2=C(C3=C1C(=O)N(N=C3)CC4=CC(=CC=C4)N)SC(=C2)S(=O)C
Summary of the method: as §1

[10] = compound: CN1CCC(CNc2ccc3ncc(-c4cccc(OC(F)(F)F)c4)n3n2)CC1
Summary of the method: as §1

[11] = compound: CN1CCN(CCOc2cc(OC3CCOCC3)c3c(Nc4c(Cl)ccc5c4OCO5)ncnc3c2)CC1 [saracatinib]
Summary of the method: as §1

[12] = compound: CN1CCN(c2nc(C3=C(c4c[nH]c5ccccc45)C(=O)NC3=O)c3ccccc3n2)CC1 [sotrastaurin]
Summary of the method: as §1

[13] = compound: CN1CC[C@H](c2c(O)cc(O)c3c(=O)cc(-c4ccccc4Cl)oc23)[C@H](O)C1 [alvocidib]
Summary of the method: as §1

[14] = compound: CN1CCc2c(c3ccccc3n2Cc2ccc(C(=O)NO)cc2)C1 [Tubastatin A]
Summary of the method: as §1

[15] = compound: CNC(=O)C1=CC=CC=C1NC2=NC(=NC=C2Cl)NC3=C(C=C(C=C3)N4CCOCC4)OC
Summary of the method: as §1

[16] = compound: CNC(=O)c1ccc(Nc2ncc(C(F)(F)F)c(NCc3nccnc3N(C)S(C)(=O)=O)n2)cc1 [defactinib]
Summary of the method: as §1

[17] = compound: CNCc1ccc(-c2[nH]c3cc(F)cc4c3c2CCNC4=O)cc1 [rucaparib]
Summary of the method: as §1

[18] = compound: CNc1nc(-c2ccc3c(N)n[nH]c3c2)cc(N2C[C@@H](C(=O)NC3CCCCC3)CC[C@H]2C)n1
Summary of the method: as §1

[19] = compound: COC(=O)N[C@@H](C)CNc1nccc(-c2cn(C(C)C)nc2-c2cc(Cl)cc(NS(C)(=O)=O)c2F)n1 [encorafenib]
Summary of the method: as §1

[20] = compound: COC(=O)[C@H](CCSC)NC(=O)C1=C(C=C(C=C1)NC[C@H](CS)N)C2=CC=CC=C2
Summary of the method: as §1

Measured: log2 fold change

PROS1 (UniProt P07225)
inactive: [1] -0.028 | [2] -0.011 | [3] 0.008 | [4] -0.173 | [5] 0.019 | [6] -0.017 | [7] -0.037 | [8] -0.008 | [9] 0.077 | [10] -0.081 | [11] 0.067 | [12] 0.084 | [13] 0.046 | [14] -0.053 | [15] -0.018 | [16] -0.016 | [17] -0.034 | [18] -0.027 | [19] 0.005 | [20] 0.078

PRKRIP1 (UniProt Q9H875)
inactive: [1] 0.153 | [2] 0.132 | [3] -0.013 | [4] -0.046 | [5] -0.031 | [6] 0 | [7] -0.03 | [8] -0.013 | [9] 0.031 | [10] 0.102 | [11] 0.09 | [12] -0.059 | [13] 0.05 | [14] -0.033 | [15] -0.047 | [16] 0.155 | [17] 0.053 | [18] -0.033 | [19] -0.007 | [20] 0.032

PPM1F (UniProt P49593)
inactive: [1] -0.062 | [2] 0.081 | [3] 0.059 | [4] 0.008 | [5] 0 | [6] -0.098 | [7] -0.002 | [8] 0.09 | [9] -0.034 | [10] -0.065 | [11] -0.04 | [12] -0.017 | [13] -0.064 | [14] 0.013 | [15] 0.023 | [16] -0.016 | [17] -0.021 | [18] 0.006 | [19] -0.013 | [20] -0.048

PPP1CB (UniProt P62140)
inactive: [1] -0.006 | [2] -0.056 | [3] 0.061 | [4] 0.014 | [5] -0.015 | [6] -0.026 | [7] 0.012 | [8] 0.036 | [9] -0.073 | [10] -0.073 | [11] 0.015 | [12] 0.024 | [13] -0.05 | [14] 0.008 | [15] -0.047 | [16] -0.121 | [17] -0.052 | [18] -0.028 | [19] 0.002 | [20] -0.022

PPP5C (UniProt P53041)
inactive: [1] -0.03 | [2] -0.056 | [3] 0.033 | [4] 0.021 | [5] -0.004 | [6] 0.005 | [7] 0.011 | [8] 0.02 | [9] -0.067 | [10] 0.018 | [11] 0.028 | [12] 0.053 | [13] -0.034 | [14] -0.042 | [15] -0.025 | [16] -0.008 | [17] 0.009 | [18] 0.013 | [19] -0.024 | [20] 0.018

PPP6R3 isoform 5 (UniProt Q5H9R7)
inactive: [1] 0.002 | [2] -0.09 | [3] 0.001 | [4] 0.022 | [5] 0.012 | [6] 0.006 | [7] 0.008 | [8] -0.007 | [9] -0.05 | [10] -0.039 | [11] 0.061 | [12] 0.002 | [13] -0.05 | [14] -0.02 | [15] -0.014 | [16] -0.046 | [17] -0.013 | [18] -0.019 | [19] -0.007 | [20] 0.015

PROSER2 (UniProt Q86WR7)
inactive: [1] -0.111 | [2] -0.117 | [3] 0.076 | [4] 0.007 | [5] -0.019 | [6] 0.029 | [7] 0.023 | [8] 0.038 | [9] 0.05 | [10] -0.217 | [11] -0.065 | [12] -0.01 | [13] 0.022 | [14] -0.041 | [15] -0.036 | [16] 0.015 | [17] -0.116 | [18] -0.094 | [19] 0.004 | [20] -0.025

PPP1R10 (UniProt Q96QC0)
inactive: [1] 0.307 | [2] 0.142 | [3] -0.019 | [4] -0.184 | [5] -0.024 | [6] 0.149 | [7] -0.085 | [8] -0.12 | [9] 0.203 | [10] 0.114 | [11] -0.027 | [12] -0.004 | [13] 0.291 | [14] -0.017 | [15] -0.025 | [16] 0.391 | [17] 0.356 | [18] 0.014 | [19] 0.11 | [20] 0.032

PRRC2A (UniProt P48634)
inactive: [1] 0.164 | [2] 0.157 | [3] -0.024 | [4] -0.182 | [5] 0.006 | [6] 0.163 | [7] -0.074 | [8] -0.071 | [9] 0.144 | [10] 0.267 | [11] -0.003 | [12] 0.053 | [13] 0.164 | [14] 0.042 | [15] 0.002 | [16] 0.099 | [17] 0.226 | [18] 0.041 | [19] 0.065 | [20] 0.036

PRDX3 (UniProt P30048)
inactive: [1] 0.087 | [2] 0.06 | [3] -0.036 | [4] -0.027 | [5] 0.056 | [6] -0.014 | [7] -0.028 | [8] -0.025 | [9] 0.002 | [10] 0.134 | [11] -0.003 | [12] -0.003 | [13] 0.007 | [14] -0.019 | [15] 0.033 | [16] -0.003 | [17] -0.061 | [18] 0.027 | [19] -0.027 | [20] 0.024

PPM1H (UniProt Q9ULR3)
inactive: [1] 0.073 | [2] 0.038 | [3] -0.011 | [4] -0.042 | [5] 0.015 | [6] -0.052 | [7] -0.024 | [8] 0.046 | [9] -0.032 | [10] 0.028 | [11] 0.01 | [12] 0.074 | [13] -0.057 | [14] 0.012 | [15] 0.005 | [16] -0.023 | [17] -0.094 | [18] -0.014 | [19] -0.007 | [20] 0.015

PPP2R2A isoform 2 (UniProt P63151)
inactive: [1] 0.01 | [2] 0.014 | [3] -0.019 | [4] 0.034 | [5] -0.006 | [6] -0.041 | [7] -0.014 | [8] 0.003 | [9] -0.074 | [10] 0.016 | [11] 0.036 | [12] 0.042 | [13] -0.029 | [14] -0.046 | [15] -0.031 | [16] -0.019 | [17] -0.027 | [18] -0.047 | [19] 0 | [20] 0.002

PRPS2 isoform 2 (UniProt P11908)
inactive: [1] 0.049 | [2] 0.065 | [3] -0.005 | [4] 0.004 | [5] 0.024 | [6] 0.035 | [7] -0.031 | [8] -0.004 | [9] -0.052 | [10] 0.009 | [11] 0.009 | [12] 0.054 | [13] -0.006 | [14] 0.002 | [15] -0.013 | [16] 0.038 | [17] -0.029 | [18] -0.026 | [19] 0.008 | [20] -0.003

PPP2R1B isoform 2 (UniProt P30154)
inactive: [1] -0.016 | [2] -0.038 | [3] 0.011 | [4] 0.105 | [5] 0.02 | [6] -0.029 | [7] -0.038 | [8] -0.005 | [9] 0 | [10] -0.019 | [11] 0.002 | [12] -0.093 | [13] -0.025 | [14] -0.004 | [15] 0.001 | [16] -0.011 | [17] 0.025 | [18] 0.034 | [19] 0.041 | [20] -0.021

PREB (UniProt Q9HCU5)
inactive: [1] 0.033 | [2] -0.031 | [3] 0.033 | [4] -0.01 | [5] -0.057 | [6] -0.027 | [7] -0.009 | [8] 0.002 | [9] -0.044 | [10] 0.071 | [11] 0.018 | [12] 0 | [13] -0.007 | [14] -0.016 | [15] 0.012 | [16] 0.01 | [17] -0.02 | [18] -0.02 | [19] -0.013 | [20] 0.026

PRKCI (UniProt P41743)
inactive: [1] 0.051 | [2] -0.141 | [3] 0.033 | [4] -0.018 | [5] 0.002 | [6] -0.097 | [7] 0.076 | [8] 0.046 | [9] -0.079 | [10] -0.041 | [11] 0.008 | [12] -0.022 | [13] -0.019 | [14] 0.008 | [15] 0.069 | [16] -0.039 | [17] 0.001 | [18] -0.08 | [19] 0.014 | [20] -0.051

Two neighbouring entries from above, quoted:
PREB (UniProt Q9HCU5)
inactive: [1] 0.033 | [2] -0.031 | [3] 0.033 | [4] -0.01 | [5] -0.057 | [6] -0.027 | [7] -0.009 | [8] 0.002 | [9] -0.044 | [10] 0.071 | [11] 0.018 | [12] 0 | [13] -0.007 | [14] -0.016 | [15] 0.012 | [16] 0.01 | [17] -0.02 | [18] -0.02 | [19] -0.013 | [20] 0.026

PRKCI (UniProt P41743)
inactive: [1] 0.051 | [2] -0.141 | [3] 0.033 | [4] -0.018 | [5] 0.002 | [6] -0.097 | [7] 0.076 | [8] 0.046 | [9] -0.079 | [10] -0.041 | [11] 0.008 | [12] -0.022 | [13] -0.019 | [14] 0.008 | [15] 0.069 | [16] -0.039 | [17] 0.001 | [18] -0.08 | [19] 0.014 | [20] -0.051
